Values from PubChem BioAssay AID1671195 (Yale University, 2021)
Aim: 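Knockdowns that increase or decrease uptake of fluorescent LDL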 (primary screen). System: human Huh7 hepatoma cells. Reagents: siRNA pool against human genes, 18 nM. Duration: about 2 to 2.5 days of knockdown, then 8 h LDL uptake. Challenge: DiI-labelled LDL at 30 µg/ml for 8 h, in lipoprotein-deficient serum medium. Read-out: 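Fluorescent LDL signal imaged in cells, scaled to the plate median, robust z-score for each replicate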. Scale: robust z-score: higher = more LDL uptake after knockdown. Call rule: 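a gene counts as active if at least two replicate z-scores exceed ±2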.
Shown is an unselected part of about 22,000 reagents tested. Over the whole deposit, about 1,510 (6.9%) were called active. 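Active includes knockdowns raising or lowering LDL uptake; positive z-scores mean more uptake, negative mean less.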 No sequences are given here.

no.	Gene	PubChem SID	robust z-score, replicate 1	robust z-score, replicate 2	robust z-score, replicate 3	Call
1	MCF2L (GeneID 23263)	SID442887340	0.96	1.25	0.593	inactive
2	RDH5 (GeneID 5959)	SID442901411	-1.07	-0.523	-1.09	inactive
3	DCPS (GeneID 28960)	SID442885649	2.42	0.198	1.64	inactive
4	PALLD (GeneID 23022)	SID442889593	0.778	1.01	-0.179	inactive
5	TMEM200B (GeneID 399474)	SID442895937	-0.195	-0.0711	-0.401	inactive
6	SLC7A9 (GeneID 11136)	SID442884573	-2.66	-2.7	-2.52	active
7	CARD16 (GeneID 114769)	SID442891962	0.238	0.186	0.251	inactive
8	SNX21 (GeneID 90203)	SID442896806	-0.337	-0.332	-0.274	inactive
9	DNAH5 (GeneID 1767)	SID442903370	-1.2	-1.59	-1.06	inactive
10	UNC79 (GeneID 57578)	SID442903529	-1.84	-2.18	0.0668	inactive
11	HMSD (GeneID 284293)	SID442887829	0.886	0.469	1.15	inactive
12	RXFP4 (GeneID 339403)	SID442891834	-0.217	0.458	0.48	inactive
13	GPR15 (GeneID 2838)	SID442898771	-2.06	0.0419	0.412	inactive
14	PIGP (GeneID 51227)	SID442896805	-1.28	0.0278	0.307	inactive
15	OR9K2 (GeneID 441639)	SID442887234	0.962	1.44	0.47	inactive
16	NYAP1 (GeneID 222950)	SID442894719	-0.413	0.263	-0.131	inactive
17	DAPL1 (GeneID 92196)	SID442887145	1.44	0.408	1.08	inactive
18	ADGRF3 (GeneID 165082)	SID442887176	1.38	-0.048	1.57	inactive
19	OGFR (GeneID 11054)	SID442891473	0.0709	0.891	-0.118	inactive
20	SPEF1 (GeneID 25876)	SID442895590	-0.073	-0.212	-0.269	inactive
21	SOX21 (GeneID 11166)	SID442894802	-0.137	-0.0838	-0.0849	inactive
22	MEGF6 (GeneID 1953)	SID442895004	0.0388	-0.638	0.23	inactive
23	CEP43 (GeneID 11116)	SID442891133	0.543	0.134	0.301	inactive
24	CIMIP4 (GeneID 339669)	SID442883624	2.73	2.97	1.96	active
25	ELK1 (GeneID 2002)	SID442886806	0.212	2.32	0.648	inactive
26	DPF3 (GeneID 8110)	SID442900669	-0.757	-0.686	-0.93	inactive
27	CPA4 (GeneID 51200)	SID442903136	-1.19	-1.23	-1.25	inactive
28	FAM167A (GeneID 83648)	SID442902864	-1.14	-0.939	-1.41	inactive
29	MCM3 (GeneID 4172)	SID442896593	-0.104	-0.217	-0.55	inactive
30	SLC10A5 (GeneID 347051)	SID442897209	-0.594	-0.347	-0.134	inactive
31	LRRN2 (GeneID 10446)	SID442890929	0.261	0.246	0.549	inactive
32	FITM2 (GeneID 128486)	SID442883887	0.951	3.5	2.12	active
33	PLS1 (GeneID 5357)	SID442888615	0.386	1.3	0.386	inactive
34	GSTCD (GeneID 79807)	SID442899448	-0.687	-0.349	-0.827	inactive
35	ITIH4 (GeneID 3700)	SID442903559	-0.447	-1.97	-1.56	inactive
36	CSGALNACT2 (GeneID 55454)	SID442883142	5.03	3.91	4.74	active
37	ORMDL2 (GeneID 29095)	SID442887009	1.69	-0.0912	1.43	inactive
38	TAS2R41 (GeneID 259287)	SID442899962	-0.555	-0.7	-0.82	inactive
39	UBOX5 (GeneID 22888)	SID442883100	6.65	6.43	7.25	active
40	POLR2E (GeneID 5434)	SID442900346	-0.966	-0.726	-0.554	inactive
41	PNMA2 (GeneID 10687)	SID442884713	1.59	1.81	2.38	inactive

Single entries from the entries so far.
Entry for UBOX5 (GeneID 22888) [SID442883100] under “robust z-score, replicate 2”: 6.43
Entry of DPF3 (GeneID 8110) [SID442900669] under “robust z-score, replicate 1”: -0.757
FITM2 (GeneID 128486) [SID442883887], robust z-score, replicate 2 = 3.5
Value of SOX21 (GeneID 11166) [SID442894802] under “Call”: inactive
DAPL1 (GeneID 92196) [SID442887145], Call → inactive
Entry of CARD16 (GeneID 114769) [SID442891962] under “robust z-score, replicate 2”: 0.186

Continued.
no.	Gene	PubChem SID	robust z-score, replicate 1	robust z-score, replicate 2	robust z-score, replicate 3	Call
42	FBXO31 (GeneID 79791)	SID442893335	0.196	-0.0187	0.00922	inactive
43	RRM2 (GeneID 6241)	SID442895192	0.0449	-0.292	-0.187	inactive
44	RRM2 (GeneID 6241)	SID442903015	-0.801	-1.47	-1.32	inactive
45	KLHL22 (GeneID 84861)	SID442892228	0.375	-0.457	0.667	inactive
46	SHCBP1 (GeneID 79801)	SID442883540	2.78	2.75	2.62	active
47	LOC400748 (GeneID 400748)	SID442897095	-0.188	-0.643	-0.211	inactive
48	ZNF8 (GeneID 7554)	SID442901920	-1.22	-0.991	-0.733	inactive
49	ZDHHC20 (GeneID 253832)	SID442889659	0.288	0.647	0.646	inactive
50	CADPS2 (GeneID 93664)	SID442893023	0.157	0.157	-0.0277	inactive
51	EMG1 (GeneID 10436)	SID442887011	-0.295	2.6	0.719	inactive
52	TUBD1 (GeneID 51174)	SID442885401	1.06	1.79	1.73	inactive
53	RETNLB (GeneID 84666)	SID442883294	3.59	2.72	3.84	active
54	LAMTOR2 (GeneID 28956)	SID442900702	-1.39	0.102	-1.1	inactive
55	LOC442497 (GeneID 442497)	SID442903030	-0.726	-1.45	-1.42	inactive
56	ZDHHC23 (GeneID 254887)	SID442900550	-0.938	-0.566	-0.818	inactive
57	VRTN (GeneID 55237)	SID442888513	-0.28	1.8	0.598	inactive
58	SECISBP2 (GeneID 79048)	SID442886276	1.06	0.992	1.57	inactive
59	CPE (GeneID 1363)	SID442887479	1.13	1.04	0.542	inactive
60	SLC22A4 (GeneID 6583)	SID442888043	0.701	0.84	0.833	inactive
61	POLE (GeneID 5426)	SID442902814	-1.42	-1.23	-0.808	inactive
62	OR8K1 (GeneID 390157)	SID442902466	-1.25	-1.06	-0.939	inactive
63	NOG (GeneID 9241)	SID442895738	0.158	-0.121	-0.642	inactive
64	LOC440118 (retired record) (GeneID 440118)	SID442883558	2.65	3.01	2.38	active
65	EIPR1 (GeneID 7260)	SID442886831	2.62	-0.472	1.01	inactive
66	ABCC12 (GeneID 94160)	SID442884931	1.74	2.37	1.21	inactive
67	KLHL21 (GeneID 9903)	SID442896777	0.131	0.391	-1.46	inactive
68	FRMD4B (GeneID 23150)	SID442885013	0.895	3.3	0.981	inactive
